Data as given in paper PMC9730683.

Chains of the proteins cited; added tags and fusions are not shown.
UniProt Q6UW68: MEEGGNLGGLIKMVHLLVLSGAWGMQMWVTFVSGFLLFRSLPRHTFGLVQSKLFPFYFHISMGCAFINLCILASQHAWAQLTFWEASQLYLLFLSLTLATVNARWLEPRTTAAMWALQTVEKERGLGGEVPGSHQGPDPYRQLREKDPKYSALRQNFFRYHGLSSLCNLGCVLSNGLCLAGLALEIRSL

Target: T1, glycoprotein C (gC) of oHSV (oHSV (oncolytic herpes simplex virus; type and strain not stated)) (UniProt P10228)
T1 sequence: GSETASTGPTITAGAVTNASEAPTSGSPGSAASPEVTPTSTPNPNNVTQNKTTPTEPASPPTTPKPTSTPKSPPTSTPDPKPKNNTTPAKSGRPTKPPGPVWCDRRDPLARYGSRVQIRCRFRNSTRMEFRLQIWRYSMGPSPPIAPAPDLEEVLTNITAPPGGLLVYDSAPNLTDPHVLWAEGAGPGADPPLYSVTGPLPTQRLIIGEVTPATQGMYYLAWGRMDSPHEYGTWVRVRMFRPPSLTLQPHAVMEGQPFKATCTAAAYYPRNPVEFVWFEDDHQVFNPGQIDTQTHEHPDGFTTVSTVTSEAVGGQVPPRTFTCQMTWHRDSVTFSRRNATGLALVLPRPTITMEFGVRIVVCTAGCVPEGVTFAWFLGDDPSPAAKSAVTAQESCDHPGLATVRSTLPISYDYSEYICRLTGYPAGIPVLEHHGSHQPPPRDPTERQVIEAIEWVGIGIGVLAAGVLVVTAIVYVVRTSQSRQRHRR
Assay: affinity purification with mass spectrometry; IP of OVTOKO, TR127 and JHOC cell proteins with antibodies against oHSV gC (and gD); SDS-PAGE, Coomassie; the 25 kDa band from OVTOKO cells identified by mass spectrometry

TMEM205 (from UniProt Q6UW68 1-189)
binding: binds

No constants are given. Whether binding was seen depends on the method and setting. Binding seen in cells or lysates may run through a third protein. A yes stands for co-enrichment or nearness to the bait. Other partners may have been found.
